Patent US11161822B2, “Amide compounds and use thereof” (NeoPharm Co., Ltd., priority 2019, dated 2021)
For at least one compound, name, drawing or mass did not settle the structure.

System: PPAR-γ
Experiment: Effect of inhibiting expression of PPAR-γ by Western blot in IGF-1-treated human sebocytes
Format: cell-based
Settings: human sebocytes previously treated with IGF-1 (50 ng/ml), sample 20 μM, 24 hours

## CC1=C(/C=C/C(C)=C/C=C/C(C)=C/C(=O)O)C(C)(C)CCC1 [retinoic acid]
  effect of inhibiting PPAR-γ activity (PPAR-γ protein expression, Western blot, FIG. 1): rather inhibited
